Some of the results follow. For some of these results: The source does not settle which construct or isoform was used.
Columns and labels:
Experiment in all cases: protein microarray (ProtoArray v5.0), streptavidin-Alexa Fluor 647
Conditions in all cases: 3'-biotin; 20 mM Tris (pH 7.5), 5 mM MgCl2, 100 mM KCl, 0.1% Tween-20, A/T-rich and random oligonucleotide blockers; temperature not stated; high values mean tight binding
[1] = test system: NKG2D ligand 4 (human)
[2] = test system: NME1 (human)
[3] = test system: NME5 (human)
[4] = test system: NME6 (human)
[5] = test system: NMI (human)
[6] = test system: NMNAT2 (human)
[7] = molecular target: T1, NMT2 (UniProt O60551)
T1 sequence: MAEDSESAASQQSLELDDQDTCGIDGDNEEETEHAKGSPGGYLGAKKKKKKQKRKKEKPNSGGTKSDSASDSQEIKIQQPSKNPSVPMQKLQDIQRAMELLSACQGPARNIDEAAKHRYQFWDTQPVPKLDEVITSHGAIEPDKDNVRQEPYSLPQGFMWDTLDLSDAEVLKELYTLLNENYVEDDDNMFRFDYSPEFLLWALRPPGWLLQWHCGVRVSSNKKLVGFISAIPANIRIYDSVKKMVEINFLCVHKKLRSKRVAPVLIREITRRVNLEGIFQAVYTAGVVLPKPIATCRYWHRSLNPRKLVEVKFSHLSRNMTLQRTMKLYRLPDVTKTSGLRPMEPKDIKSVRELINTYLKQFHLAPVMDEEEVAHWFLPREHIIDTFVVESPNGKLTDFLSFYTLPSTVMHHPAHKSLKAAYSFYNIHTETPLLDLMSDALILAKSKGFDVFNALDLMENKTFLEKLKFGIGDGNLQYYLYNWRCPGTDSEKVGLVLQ

[8] = molecular target: T2, NOL7 (UniProt Q9UMY1)
T2 sequence: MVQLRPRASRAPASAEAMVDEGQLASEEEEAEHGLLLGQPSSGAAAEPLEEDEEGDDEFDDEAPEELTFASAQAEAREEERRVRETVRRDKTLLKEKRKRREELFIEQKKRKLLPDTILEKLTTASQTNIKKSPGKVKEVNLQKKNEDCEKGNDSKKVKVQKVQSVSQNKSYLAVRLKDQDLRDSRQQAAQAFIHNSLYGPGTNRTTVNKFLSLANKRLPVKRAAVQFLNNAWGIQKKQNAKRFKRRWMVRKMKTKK

[9] = test system: NPC2 (human)
[10] = test system: NPL (human)

Question: For “GGGGACAGGGGTATGGGGAGGGG [G4-3 biotinylated (CtG)]”, which binding signal [1] is on record?
Answer: -0.317 z-score

Question: What about the binding signal [2] of the same sequence?
Answer: -0.333 z-score

Question: And the binding signal [3]?
Answer: -0.331 z-score

Question: And the binding signal [4]?
Answer: -0.326 z-score

Question: What about the binding signal [5] of the same sequence?
Answer: -0.312 z-score

Question: And the binding signal [6]?
Answer: -0.333 z-score

Question: And the binding signal [7]?
Answer: 4.57 z-score

Question: And the binding signal [8]?
Answer: 8.76 z-score

Question: What about the binding signal [9] of the same sequence?
Answer: -0.322 z-score

Question: What about the binding signal [10] of the same sequence?
Answer: -0.331 z-score
